# Assay results reported in PubChem BioAssay AID2685 (National Center for Advancing Translational Sciences (NCATS), 2010).
# Some of the results follow. These are further read-outs of the screen, such as a control signal, another cell line or another target. No call is given for them. The list favours compounds with an active or inconclusive main result. The note in brackets gives the kind of curve behind each potency; many fits are weak.
# Assay: qHTS Assay for Lipid Storage Modulators in Drosophila S3 Cells;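 for cell number change: cells counted by Cell Tracker Red CMTPX staining in the red channel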
# Details: BODIPY lipid droplet fluorescence, 18-24 h; for cell number change: measured here: cell count max response, cells fed with added oleic acid
# Procedure, shortened: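 Drosophila S3 cells loaded with oleic acid (400 uM, as added) and compounds at several concentrations; lipid droplets imaged by 488-nm laser-scanning cytometry, 500–530 nm intensity and object ratio to cell channel. Percent activity normalized to 20 uM Triacsin C.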
# [1] = measured here: lipid fluorescence (Fed channel) AC50, cells fed with added oleic acid
# [2] = measured here: cell number channel AC50, cells fed with added oleic acid
SMILES,cell number change [%],AC50 [1],AC50 [2]
O=C(Nc1scc(-c2ccccc2)c1C(=O)O)c1ccc(F)cc1,14.8,"29.1 µM [rising, single point]",
Cc1ccc(Cl)cc1N1CCN(C(=O)c2ccc(NC3=NC4CS(=O)(=O)CC4S3)cc2)CC1 (stereo not drawn),-28.1,"20.6 µM [falling, single point]",
COc1ccc(CCNC(=O)CCCn2c(SCC(N)=O)nc3cc4c(cc3c2=O)OCO4)cc1OC,-31,"6.51 µM [rising, single point]","6.51 µM [rising, single point]"
Cc1ccc(S(=O)(=O)N2CCN(C(=O)CSc3nc4ccccc4c(=O)[nH]3)CC2)c(C)c1,-32.3,"0.0731 µM [falling, full curve, poor fit]","32.6 µM [falling, single point]"
CCCCCSc1nncc(=O)[nH]1,-7.73,,"0.00517 µM [falling, full curve, poor fit]"
CCn1c(C(c2ccccc2)c2ccccc2)n[nH]c1=S,-82.7,,"29.1 µM [falling, single point]"
CN1CCN(C(=O)c2ccc3c(c2)N(C)C(=O)/C(=C/c2cccc(Cl)c2)S3)CC1,-48.9,,"29.1 µM [falling, single point]"
Cc1cc(S(=O)(=O)N2CCCCC2)ccc1OCC(=O)Nc1ccccc1,-7.65,"35.5 µM [falling, single point]",
CCOC(=O)N1CCc2c(sc3c2c(=O)n(Cc2ccccc2)c(=O)n3Cc2ccc(C)cc2)C1,0.52,"2.59 µM [rising, partial curve]",
Cn1c(=N)n(CC(=O)c2cccs2)c2ccccc21,-29.8,"13 µM [falling, partial curve, poor fit]",
O=C(NCCN1CCOCC1)c1ccc(CS(=O)(=O)Cc2ccccc2F)o1,5.18,"0.411 µM [falling, partial curve]",
COc1ccc(C2C(C#N)=C(N)OC3=C2C(=O)CC(C)C3)c(OC)c1OC (stereo not drawn),-3.59,,
CC(C)(C)c1ccc(/C=C/C(=O)N2CCN(c3ncccn3)CC2)cc1,-3.7,"6.51 µM [rising, partial curve]","2.91 µM [rising, single point]"
CNC(=O)CSc1n[nH]c(-c2cc(Cl)ccc2OC)n1,20,,"0.082 µM [rising, full curve, poor fit]"
O=C(NCCC1=CCCCC1)C1CCN(S(=O)(=O)N2CCOCC2)CC1,3.12,"7.31 µM [falling, single point]",
CN(C)C(=O)N1CCC(C(=O)N2CCCC(C(=O)c3ccc(C(C)(C)C)cc3)C2)CC1 (stereo not drawn),-58.4,"8.2 µM [falling, partial curve]","14.6 µM [falling, partial curve]"
COc1ccc(NC(=O)c2ccccc2NC(=O)CSc2ccccc2)cc1,-37,,"16.4 µM [falling, single point]"
Cc1nnc(SCc2ccccc2C#N)n1-c1ccccc1,-12.2,"29.1 µM [rising, partial curve]",
Cc1ccc(N(CC(=O)NCc2ccccc2Cl)S(=O)(=O)c2cccs2)cc1,32,,"13 µM [rising, single point]"

SMILES,cell number change [%],AC50 [1],AC50 [2]
O=c1ccccn1Cc1ccccc1F,1.09,"0.92 µM [falling, partial curve]",
CC(=O)CC1(O)C(=O)N(CN2CCN(c3ccccc3)CC2)c2ccccc21 (stereo not drawn),-1.64,,
N#CC1=C2SCC(O)(c3ccccc3)N2C(=O)CC1c1cccs1 (stereo not drawn),-36.5,"29.1 µM [falling, single point]","32.6 µM [falling, single point]"
COC(=O)CCSCC(=O)Nc1cc(C)on1,-43.3,"29.1 µM [falling, single point]","29.1 µM [falling, single point]"
Cc1nnc(SCC(=O)NN2C(=O)NC3(CCCCC3)C2=O)s1,13.1,"23.1 µM [rising, single point]",
COC(=O)CSC(C(=O)Nc1ccc(C)c(C)c1)c1ccccc1 (stereo not drawn),4.6,"0.00411 µM [rising, full curve, poor fit]",
CN(C)S(=O)(=O)c1cccc(NC(=S)NCCCn2ccnc2)c1,,,"0.103 µM [rising, full curve, poor fit]"
CCOC(=O)c1c(NC(=O)CSc2nnc(-c3c[nH]c4ccccc34)n2C)sc2c1CCCC2,-11,"1.46 µM [rising, partial curve]",
Cc1cc(C)nc(NC(=O)c2cccc(Br)c2)n1,23.6,"29.1 µM [rising, partial curve, poor fit]",
O=C(OCC#CCSc1nnc(-c2cccc3ccccc23)o1)c1ccc(Br)cc1,23.5,,"0.517 µM [rising, full curve, poor fit]"
CN1C(=O)C(C(=O)NC(C)(C)C)C2c3ccccc3OC13CCCCC23 (stereo not drawn),-20.9,"32.6 µM [falling, single point]",
CSc1sc(C(=O)NNC(C)=O)c2c1C1(CCC2)SCCS1,-33.9,"23.1 µM [falling, partial curve, poor fit]","10.3 µM [falling, partial curve]"
O=S(=O)(NCCc1ccncc1)c1ccc(Br)cc1,,"4.11 µM [rising, single point]",
CC(=O)Cc1nsc(Nc2ccc(Cl)cc2)n1,-15,"0.461 µM [falling, full curve, poor fit]",
CC(C)c1nccn1CCC(=O)O,-16.1,"1.3 µM [falling, partial curve]","0.58 µM [falling, full curve, poor fit]"
CCOC(=O)C(Cc1ccccc1)c1ccnc2ncnn12 (stereo not drawn),9.59,,
COc1ccc(C(=O)c2ccc(OC)c3cccc(O)c23)cc1OC,14.8,,
CCn1c(SCC(=O)Nc2ccc(C(C)=O)cc2)nc2c([nH]c3ccccc32)c1=O,-26.8,,
Nc1nc(CSCCO)nc(Nc2ccc(F)cc2)n1,-47.8,"14.6 µM [falling, partial curve]","7.31 µM [falling, partial curve]"

# Quoted from the listing.
# For AC50 [1], COC(=O)CCSCC(=O)Nc1cc(C)on1 is entered as 29.1 µM [falling, single point]
# For AC50 [1], Nc1nc(CSCCO)nc(Nc2ccc(F)cc2)n1 is entered as 14.6 µM [falling, partial curve]
# For cell number change [%], CCn1c(SCC(=O)Nc2ccc(C(C)=O)cc2)nc2c([nH]c3ccccc32)c1=O is entered as -26.8
# For AC50 [1], CCOC(=O)c1c(NC(=O)CSc2nnc(-c3c[nH]c4ccccc34)n2C)sc2c1CCCC2 is entered as 1.46 µM [rising, partial curve]
# For cell number change [%], O=c1ccccn1Cc1ccccc1F is entered as 1.09

# (cont.)

SMILES,cell number change [%],AC50 [1],AC50 [2]
CC(C)=CC(=O)OCc1cc([N+](=O)[O-])cc2c1OCOC2,20.4,,
O=C(NCc1ccccc1)C(c1cccnc1)N(Cc1ccco1)C(=O)c1ccccn1 (stereo not drawn),19.5,"0.58 µM [rising, full curve, poor fit]",
Nc1nnc(CC(=O)N/N=C/c2ccccc2OCc2ccccc2F)s1,3.3,"0.411 µM [rising, full curve]",
CC1CCCCN1C(=O)CSc1nc(-c2ccccc2)cc(=O)[nH]1 (stereo not drawn),6.56,"18.4 µM [rising, single point]",
Cc1cc2nc(-c3cccnc3SCC(=O)NC3CC3)[nH]c2cc1C,81.9,"20.6 µM [rising, single point]","5.17 µM [rising, full curve]"
CCN(CC(=O)Nc1cc(Cl)ccc1C)C(=O)c1cc([N+](=O)[O-])ccc1N1CCOCC1,,"29.1 µM [rising, single point]",
O=C(CNC(=O)c1ccc2c(c1)OCCO2)N=Nc1c(O)[nH]c2ccccc12,13.4,"29.1 µM [rising, single point]",
Cc1ccc(NC(=O)CCC(=O)OCC(F)(F)C(F)F)cc1,-0.156,"0.651 µM [falling, single point]",
O=C(COC(=O)c1cc[n+]([O-])cc1)Nc1ccc(Br)cc1,36.3,"18.4 µM [rising, single point]","1.03 µM [rising, full curve, poor fit]"
CCCCOc1ccc(/C=C/C(=O)Nc2ccc([N+](=O)[O-])cc2C)cc1,-18.5,"0.116 µM [falling, full curve, poor fit]",
COc1cc(NC(=S)NCCCN2CCOCC2)c(OC)cc1Cl,-5.08,,
CCN(CC)C(=O)N1CCC(NC(=O)c2ccc(C(C)(C)C)cc2)CC1,-55.9,"16.4 µM [falling, partial curve, poor fit]","4.61 µM [falling, partial curve, poor fit]"
C#CCSc1nnc(CNS(=O)(=O)c2ccc(Br)cc2)n1C,-9.84,"6.51 µM [rising, single point]",
CC(Oc1ccc(Cl)cc1Cl)C(=O)NCCCn1ccnc1 (stereo not drawn),78.9,"16.4 µM [rising, partial curve]","29.1 µM [rising, single point]"
Cc1ccc(NC(=O)CSCC(=O)OCc2cc(=O)oc3cc(O)ccc23)c(C)c1,-5.02,"0.116 µM [rising, full curve, poor fit]",
C[C@@H](C(=O)Nc1ccc2ccccc2c1)[C@@H]1C[C@@]1(C)[C@@H](NC(=O)c1cccnc1)c1ccccc1,9.24,"0.461 µM [rising, single point]",
O=C(O)CC1C(=O)NCCN1Cc1cccs1 (stereo not drawn),18,"6.51 µM [falling, single point]","0.116 µM [falling, full curve, poor fit]"
CCC(=O)c1ccc(OCc2ccc(C(=O)OC)o2)c(OC)c1,-30.2,"29.1 µM [falling, partial curve, poor fit]","0.00461 µM [falling, full curve, poor fit]"
CC12CCC(c3c(C(=O)O)nn(-c4ccc(F)cc4)c31)C2(C)C (stereo not drawn),,"23.1 µM [falling, single point]",
